B1: Q9Y3I0 (protein, UniProt Q9Y3I0 1-505, looked up)
chain: MSRSYNDELQFLEKINKNCWRIKKGFVPNMQVEGVFYVNDALEKLMFEELRNACRGGGVGGFLPAMKQIGNVAALPGIVHRSIGLPDVHSGYGFAIGNMAAFDMNDPEAVVSPGGVGFDINCGVRLLRTNLDESDVQPVKEQLAQAMFDHIPVGVGSKGVIPMNAKDLEEALEMGVDWSLREGYAWAEDKEHCEEYGRMLQADPNKVSARAKKRGLPQLGTLGAGNHYAEIQVVDEIFNEYAAKKMGIDHKGQVCVMIHSGSRGLGHQVATDALVAMEKAMKRDKIIVNDRQLACARIASPEGQDYLKGMAAAGNYAWVNRSSMTFLTRQAFAKVFNTTPDDLDLHVIYDVSHNIAKVEQHVVDGKERTLLVHRKGSTRAFPPHHPLIAVDYQLTGQPVLIGGTMGTCSYVLTGTEQGMTETFGTTCHGAGRALSRAKSRRNLDFQDVLDKLADMGIAIRVASPKLVMEEAPESYKNVTDVVNTCHDAGISKKAIKLRPIAVIKG
modifications: full-length
B2: P55145 (protein, UniProt P55145 1-182, looked up)
chain: MRRMWATQGLAVALALSVLPGSRALRPGDCEVCISYLGRFYQDLKDRDVTFSPATIENELIKFCREARGKENRLCYYIGATDDAATKIINEVSKPLAHHIPVEKICEKLKKKDSQICELKYDKQIDLSTVDLKKLRVKELKKILDDWGETCKGCAEKSDYIRKINELMPKYAPKAASARTDL
modifications: full-length
B3: P12814 (protein, UniProt P12814 1-892, looked up)
chain: MDHYDSQQTNDYMQPEEDWDRDLLLDPAWEKQQRKTFTAWCNSHLRKAGTQIENIEEDFRDGLKLMLLLEVISGERLAKPERGKMRVHKISNVNKALDFIASKGVKLVSIGAEEIVDGNVKMTLGMIWTIILRFAIQDISVEETSAKEGLLLWCQRKTAPYKNVNIQNFHISWKDGLGFCALIHRHRPELIDYGKLRKDDPLTNLNTAFDVAEKYLDIPKMLDAEDIVGTARPDEKAIMTYVSSFYHAFSGAQKAETAANRICKVLAVNQENEQLMEDYEKLASDLLEWIRRTIPWLENRVPENTMHAMQQKLEDFRDYRRLHKPPKVQEKCQLEINFNTLQTKLRLSNRPAFMPSEGRMVSDINNAWGCLEQVEKGYEEWLLNEIRRLERLDHLAEKFRQKASIHEAWTDGKEAMLRQKDYETATLSEIKALLKKHEAFESDLAAHQDRVEQIAAIAQELNELDYYDSPSVNARCQKICDQWDNLGALTQKRREALERTEKLLETIDQLYLEYAKRAAPFNNWMEGAMEDLQDTFIVHTIEEIQGLTTAHEQFKATLPDADKERLAILGIHNEVSKIVQTYHVNMAGTNPYTTITPQEINGKWDHVRQLVPRRDQALTEEHARQQHNERLRKQFGAQANVIGPWIQTKMEEIGRISIEMHGTLEDQLSHLRQYEKSIVNYKPKIDQLEGDHQLIQEALIFDNKHTNYTMEHIRVGWEQLLTTIARTINEVENQILTRDAKGISQEQMNEFRASFNHFDRDHSGTLGPEEFKACLISLGYDIGNDPQGEAEFARIMSIVDPNRLGVVTFQAFIDFMSRETADTDTADQVMASFKILAGDKNYITMDELRRELPPDQAEYCIARMAPYTGPDSVPGALDYMSFSTALYGESDL
modifications: full-length
B4: P49419 (protein, UniProt P49419 1-539, looked up)
chain: MWRLPRALCVHAAKTSKLSGPWSRPAAFMSTLLINQPQYAWLKELGLREENEGVYNGSWGGRGEVITTYCPANNEPIARVRQASVADYEETVKKAREAWKIWADIPAPKRGEIVRQIGDALREKIQVLGSLVSLEMGKILVEGVGEVQEYVDICDYAVGLSRMIGGPILPSERSGHALIEQWNPVGLVGIITAFNFPVAVYGWNNAIAMICGNVCLWKGAPTTSLISVAVTKIIAKVLEDNKLPGAICSLTCGGADIGTAMAKDERVNLLSFTGSTQVGKQVGLMVQERFGRSLLELGGNNAIIAFEDADLSLVVPSALFAAVGTAGQRCTTARRLFIHESIHDEVVNRLKKAYAQIRVGNPWDPNVLYGPLHTKQAVSMFLGAVEEAKKEGGTVVYGGKVMDRPGNYVEPTIVTGLGHDASIAHTETFAPILYVFKFKNEEEVFAWNNEVKQGLSSSIFTKDLGRIFRWLGPKGSDCGIVNVNIPTSGAEIGGAFGGEKHTGGGRESGSDAWKQYMRRSTCTINYSKDLPLAQGIKFQ
modifications: full-length
B5: P35914 (protein, UniProt P35914 1-325, looked up)
chain: MAAMRKALPRRLVGLASLRAVSTSSMGTLPKRVKIVEVGPRDGLQNEKNIVSTPVKIKLIDMLSEAGLSVIETTSFVSPKWVPQMGDHTEVLKGIQKFPGINYPVLTPNLKGFEAAVAAGAKEVVIFGAASELFTKKNINCSIEESFQRFDAILKAAQSANISVRGYVSCALGCPYEGKISPAKVAEVTKKFYSMGCYEISLGDTIGVGTPGIMKDMLSAVMQEVPLAALAVHCHDTYGQALANTLMALQMGVSVVDSSVAGLGGCPYAQGASGNLATEDLVYMLEGLGIHTGVNLQKLLEAGNFICQALNRKTSSKVAQATCKL
modifications: full-length
B6: P37802 (protein, UniProt P37802 1-199, looked up)
chain: MANRGPAYGLSREVQQKIEKQYDADLEQILIQWITTQCRKDVGRPQPGRENFQNWLKDGTVLCELINALYPEGQAPVKKIQASTMAFKQMEQISQFLQAAERYGINTTDIFQTVDLWEGKNMACVQRTLMNLGGLAVARDDGLFSGDPNWFPKKSKENPRNFSDNQLQEGKNVIGLQMGTNRGASQAGMTGYGMPRQIL
modifications: full-length
B7: P30084 (protein, UniProt P30084 1-290, looked up)
chain: MAALRVLLSCVRGPLRPPVRCPAWRPFASGANFEYIIAEKRGKNNTVGLIQLNRPKALNALCDGLIDELNQALKTFEEDPAVGAIVLTGGDKAFAAGADIKEMQNLSFQDCYSSKFLKHWDHLTQVKKPVIAAVNGYAFGGGCELAMMCDIIYAGEKAQFAQPEILIGTIPGAGGTQRLTRAVGKSLAMEMVLTGDRISAQDAKQAGLVSKICPVETLVEEAIQCAEKIASNSKIVVAMAKESVNAAFEMTLTEGSKLEKKLFYSTFATDDRKEGMTAFVEKRKANFKDQ
modifications: full-length
B8: P02461 (protein, UniProt P02461 1-1466, looked up)
chain: MMSFVQKGSWLLLALLHPTIILAQQEAVEGGCSHLGQSYADRDVWKPEPCQICVCDSGSVLCDDIICDDQELDCPNPEIPFGECCAVCPQPPTAPTRPPNGQGPQGPKGDPGPPGIPGRNGDPGIPGQPGSPGSPGPPGICESCPTGPQNYSPQYDSYDVKSGVAVGGLAGYPGPAGPPGPPGPPGTSGHPGSPGSPGYQGPPGEPGQAGPSGPPGPPGAIGPSGPAGKDGESGRPGRPGERGLPGPPGIKGPAGIPGFPGMKGHRGFDGRNGEKGETGAPGLKGENGLPGENGAPGPMGPRGAPGERGRPGLPGAAGARGNDGARGSDGQPGPPGPPGTAGFPGSPGAKGEVGPAGSPGSNGAPGQRGEPGPQGHAGAQGPPGPPGINGSPGGKGEMGPAGIPGAPGLMGARGPPGPAGANGAPGLRGGAGEPGKNGAKGEPGPRGERGEAGIPGVPGAKGEDGKDGSPGEPGANGLPGAAGERGAPGFRGPAGPNGIPGEKGPAGERGAPGPAGPRGAAGEPGRDGVPGGPGMRGMPGSPGGPGSDGKPGPPGSQGESGRPGPPGPSGPRGQPGVMGFPGPKGNDGAPGKNGERGGPGGPGPQGPPGKNGETGPQGPPGPTGPGGDKGDTGPPGPQGLQGLPGTGGPPGENGKPGEPGPKGDAGAPGAPGGKGDAGAPGERGPPGLAGAPGLRGGAGPPGPEGGKGAAGPPGPPGAAGTPGLQGMPGERGGLGSPGPKGDKGEPGGPGADGVPGKDGPRGPTGPIGPPGPAGQPGDKGEGGAPGLPGIAGPRGSPGERGETGPPGPAGFPGAPGQNGEPGGKGERGAPGEKGEGGPPGVAGPPGGSGPAGPPGPQGVKGERGSPGGPGAAGFPGARGLPGPPGSNGNPGPPGPSGSPGKDGPPGPAGNTGAPGSPGVSGPKGDAGQPGEKGSPGAQGPPGAPGPLGIAGITGARGLAGPPGMPGPRGSPGPQGVKGESGKPGANGLSGERGPPGPQGLPGLAGTAGEPGRDGNPGSDGLPGRDGSPGGKGDRGENGSPGAPGAPGHPGPPGPVGPAGKSGDRGESGPAGPAGAPGPAGSRGAPGPQGPRGDKGETGERGAAGIKGHRGFPGNPGAPGSPGPAGQQGAIGSPGPAGPRGPVGPSGPPGKDGTSGHPGPIGPPGPRGNRGERGSEGSPGHPGQPGPPGPPGAPGPCCGGVGAAAIAGIGGEKAGGFAPYYGDEPMDFKINTDEIMTSLKSVNGQIESLISPDGSRKNPARNCRDLKFCHPELKSGEYWVDPNQGCKLDAIKVFCNMETGETCISANPLNVPRKHWWTDSSAEKKHVWFGESMDGGFQFSYGNPELPEDVLDVHLAFLRLLSSRASQNITYHCKNSIAYMDQASGNVKKALKLMGSNEGEFKAEGNSKFTYTVLEDGCTKHTGEWSKTVFEYRTRKAVRLPIVDIAPYDIGGPDQEFGVDVGPVCFL
modifications: full-length
B9: P51148 (protein, UniProt P51148 1-216, looked up)
chain: MAGRGGAARPNGPAAGNKICQFKLVLLGESAVGKSSLVLRFVKGQFHEYQESTIGAAFLTQTVCLDDTTVKFEIWDTAGQERYHSLAPMYYRGAQAAIVVYDITNTDTFARAKNWVKELQRQASPNIVIALAGNKADLASKRAVEFQEAQAYADDNSLLFMETSAKTAMNVNEIFMAIAKKLPKNEPQNATGAPGRNRGVDLQENNPASRSQCCSN
modifications: full-length
B10: O75390 (protein, UniProt O75390 1-466, looked up)
chain: MALLTAAARLLGTKNASCLVLAARHASASSTNLKDILADLIPKEQARIKTFRQQHGKTVVGQITVDMMYGGMRGMKGLVYETSVLDPDEGIRFRGFSIPECQKLLPKAKGGEEPLPEGLFWLLVTGHIPTEEQVSWLSKEWAKRAALPSHVVTMLDNFPTNLHPMSQLSAAVTALNSESNFARAYAQGISRTKYWELIYEDSMDLIAKLPCVAAKIYRNLYREGSGIGAIDSNLDWSHNFTNMLGYTDHQFTELTRLYLTIHSDHEGGNVSAHTSHLVGSALSDPYLSFAAAMNGLAGPLHGLANQEVLVWLTQLQKEVGKDVSDEKLRDYIWNTLNSGRVVPGYGHAVLRKTDPRYTCQREFALKHLPNDPMFKLVAQLYKIVPNVLLEQGKAKNPWPNVDAHSGVLLQYYGMTEMNYYTVLFGVSRALGVLAQLIWSRALGFPLERPKSMSTEGLMKFVDSKSG
modifications: full-length

Assay: Proteomics analysis (trypsin digest, LC-MS/MS) of hMSC ghosts and derived CDLs, conditioned or unconditioned by PC3 medium
Set-up: species or system human
Conditions: CDLs derived from conditioned hMSCs versus conditioned ghosts; LC-MS/MS peak area per protein

| Molecule | Ratio of expression Cond. CDLs/Cond. Ghosts [%] |
| --- | --- |
| B1 | 8 |
| B2 | 2 |
| B3 | 4 |
| B4 | 3 |
| B5 | 8 |
| B6 | 4 |
| B7 | 3 |
| B8 | 6 |
| B9 | 6 |
| B10 | 3 |

Same assay, conditions: hMSC ghosts conditioned by PC3 medium versus unconditioned ghosts; LC-MS/MS peak area per protein

| Molecule | Ratio of expression Cond Ghosts/Ghosts [%] |
| --- | --- |
| B1 | 72 |
| B2 | 71 |
| B3 | 70 |
| B4 | 66 |
| B5 | 62 |
| B6 | 61 |
| B7 | 57 |
| B8 | 35 |
| B9 | 161 |
| B10 | 157 |
